# Measurements published in the supplement of paper PMC8728848.
# The list shows a part of the results.
# Legend:
# Assay in all cases: glycan array binding signal (z-score within array); higher = stronger binding
# Settings in all cases: glycan notation: IUPAC condensed, linker removed
# [1] = target: Fuc(a1-2)[Gal(a1-3)]Gal(b1-4)GlcNAc(b1-2)Man(a1-3)[Fuc(a1-2)[Gal(a1-3)]Gal(b1-4)GlcNAc(b1-2)Man(a1-6)]Man(b1-4)GlcNAc(b1-4)[Fuc(a1-6)]GlcNAc
# In short: (§1)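 The binding signal is a Z-score computed within each array and averaged over linkers. Arrays of the same protein sequence at different concentrations or buffers were also averaged together. Data originate from 3228 arrays in the Consortium for Functional Glycomics database, kept only where the protein sequence was available.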
# [2] = target: Fuc(a1-2)[Gal(a1-3)]Gal(b1-4)GlcNAc(b1-3)GalNAc
# In short: as §1
# [3] = target: Fuc(a1-2)[Gal(a1-3)]Gal(b1-4)GlcNAc(b1-3)[Fuc(a1-2)[Gal(a1-3)]Gal(b1-4)GlcNAc(b1-6)]GalNAc
# In short: as §1
# [4] = target: Fuc(a1-2)[Gal(a1-3)]Gal(b1-4)GlcNAc(b1-6)GalNAc
# In short: as §1
# [5] = target: Fuc(a1-2)[Gal(a1-3)]Gal(b1-4)[Fuc(a1-3)]Glc
# In short: as §1
# [6] = target: Fuc(a1-2)[Gal(a1-3)]Gal(b1-4)[Fuc(a1-3)]GlcNAc
# In short: as §1
# [7] = target: Fuc(a1-2)[Gal(a1-3)]Gal(b1-4)[Fuc(a1-3)]GlcNAc(b1-3)GalNAc
# In short: as §1
# [8] = target: Fuc(a1-2)[Gal(a1-4)]Gal(b1-4)GlcNAc
# In short: as §1
# [9] = target: Fuc(a1-2)[GalNAc(a1-3)]Gal
# In short: as §1
# [10] = target: Fuc(a1-2)[GalNAc(a1-3)]Gal(b1-3)GalNAc(a1-3)[Fuc(a1-2)]Gal(b1-4)GlcNAc
# In short: as §1
# [11] = target: Fuc(a1-2)[GalNAc(a1-3)]Gal(b1-3)GalNAc(b1-3)Gal(a1-4)Gal(b1-4)Glc
# In short: as §1
# [12] = target: Fuc(a1-2)[GalNAc(a1-3)]Gal(b1-3)GlcNAc
# In short: as §1
# [13] = target: Fuc(a1-2)[GalNAc(a1-3)]Gal(b1-3)GlcNAc(b1-2)Man(a1-3)[Fuc(a1-2)[GalNAc(a1-3)]Gal(b1-3)GlcNAc(b1-2)Man(a1-6)]Man(b1-4)GlcNAc(b1-4)GlcNAc
# In short: as §1
# [14] = target: Fuc(a1-2)[GalNAc(a1-3)]Gal(b1-3)GlcNAc(b1-2)Man(a1-3)[Fuc(a1-2)[GalNAc(a1-3)]Gal(b1-3)GlcNAc(b1-2)Man(a1-6)]Man(b1-4)GlcNAc(b1-4)[Fuc(a1-6)]GlcNAc
# In short: as §1
# [15] = target: Fuc(a1-2)[GalNAc(a1-3)]Gal(b1-3)GlcNAc(b1-3)GalNAc
# In short: as §1
# [16] = target: Fuc(a1-2)[GalNAc(a1-3)]Gal(b1-3)GlcNAc(b1-6)GalNAc
# In short: as §1
# [17] = target: Fuc(a1-2)[GalNAc(a1-3)]Gal(b1-4)Glc
# In short: as §1
# [18] = target: Fuc(a1-2)[GalNAc(a1-3)]Gal(b1-4)GlcNAc
# In short: as §1
# [19] = target: Fuc(a1-2)[GalNAc(a1-3)]Gal(b1-4)GlcNAc(b1-2)Man
# In short: as §1
# [20] = target: Fuc(a1-2)[GalNAc(a1-3)]Gal(b1-4)GlcNAc(b1-2)Man(a1-3)[Fuc(a1-2)[GalNAc(a1-3)]Gal(b1-4)GlcNAc(b1-2)Man(a1-6)]Man(b1-4)GlcNAc(b1-4)GlcNAc
# In short: as §1
# [21] = target: Fuc(a1-2)[GalNAc(a1-3)]Gal(b1-4)GlcNAc(b1-2)Man(a1-3)[Fuc(a1-2)[GalNAc(a1-3)]Gal(b1-4)GlcNAc(b1-2)Man(a1-6)]Man(b1-4)GlcNAc(b1-4)[Fuc(a1-6)]GlcNAc
# In short: as §1
# [22] = target: Fuc(a1-2)[GalNAc(a1-3)]Gal(b1-4)GlcNAc(b1-3)Gal(b1-4)GlcNAc
# In short: as §1
# [23] = target: Fuc(a1-2)[GalNAc(a1-3)]Gal(b1-4)GlcNAc(b1-3)Gal(b1-4)GlcNAc(b1-3)Gal(b1-4)GlcNAc
# In short: as §1
# [24] = target: Fuc(a1-2)[GalNAc(a1-3)]Gal(b1-4)GlcNAc(b1-3)GalNAc
# In short: as §1
# [25] = target: Fuc(a1-2)[GalNAc(a1-3)]Gal(b1-4)GlcNAc(b1-3)[Fuc(a1-2)[GalNAc(a1-3)]Gal(b1-4)GlcNAc(b1-6)]GalNAc
# In short: as §1
# [26] = target: Fuc(a1-2)[GalNAc(a1-3)]Gal(b1-4)GlcNAc(b1-6)GalNAc
# In short: as §1
# [27] = target: Fuc(a1-2)[GalNAc(a1-3)]Gal(b1-4)[Fuc(a1-3)]GlcNAc
# In short: as §1
# [28] = target: Fuc(a1-2)[GalNAc(a1-3)]Gal(b1-4)[Fuc(a1-3)]GlcNAc(b1-3)GalNAc
# In short: as §1
# [29] = target: Fuc(a1-2)[GalNAc(a1-4)]Gal(b1-4)GlcNAc
# In short: as §1
# [30] = target: Fuc(a1-2)[GalNAc(b1-3)]Gal
# In short: as §1
binder,measurement,setting,value
TAL6-6LysM (Trichoderma atroviride) (protein) AASKLGVPQPAQRDQVNCQLYAVQPNDNCIDISSKNNITYAQLLSWNPSLSSTCSNLASLNSSSICVSNPKGTFSISSNTVGATDIATTTAPVPSPTLDQTTSRCAKYYQVSDGDDCSHLTAQFAITLKDFIFLNSEVWQNCTNLELGYYYCVEPVGYISTYPGYLPTATTKPFNQTSATSLPYDGDPWARFSSNSSVIPIANGTRVDCYSYVYVKNLTENLFADCWNMASMYEITREELVLWNPSLGNDGSSGSNLSGAEASQVASSIAIPTTAPSSITTNLYTYPCTVAANISYCVALVSSTGALPTNTAPPGPHASGEISNCTAWFAPEAYDTCKSILDIFEMSFANFYKMNPSVGPDCSGLAVGTNYCVSTYPNGEDPNDDWDGDDSIPSISPTGIITPTPTQSGMVSNCNKFYDVHSNDGCSAIASSQHVDLSSLYKWNPAIKTDCSGLQASVYVCIGILTTSMSTTSKLPTTTSKPSTTSKPPTGITTPTPTQSGMVKNCNKFYDVHSGDGCSAIASSQKVNLSSFYLWNPAVKTDCSGLQASVFVCIGTLTTSMSTTTSKLPTTTSKPSTTSKPPTGIITPTPTQNGMVKNCNKFYDVHSGDGCSAIASSQKVNLSSFYLWNPAVKTDCSGLQASVFVCVGTATTTTAAGITTPTPTQSGMVSGCNKFYDVHAGDGCSAIASSQKIALSSLYKWNPAVKTDCSGLQASVYICIGVGNAAAARVTGAAASFLEQKLISEEDLNSAVDHHHHHH,glycan array binding signal (z-score),[1],1.7
same,glycan array binding signal (z-score),[2],-0.999
same,glycan array binding signal (z-score),[3],-0.724
same,glycan array binding signal (z-score),[4],-0.509
same,glycan array binding signal (z-score),[5],-0.694
same,glycan array binding signal (z-score),[6],-0.889
same,glycan array binding signal (z-score),[7],0.955
same,glycan array binding signal (z-score),[8],0.687
same,glycan array binding signal (z-score),[9],-0.757
same,glycan array binding signal (z-score),[10],-0.873
same,glycan array binding signal (z-score),[11],-0.404
same,glycan array binding signal (z-score),[12],0.347
same,glycan array binding signal (z-score),[13],-0.391
same,glycan array binding signal (z-score),[14],-1.06
same,glycan array binding signal (z-score),[15],0.204
same,glycan array binding signal (z-score),[16],1.12
same,glycan array binding signal (z-score),[17],-0.724
same,glycan array binding signal (z-score),[18],0.557
same,glycan array binding signal (z-score),[19],0.179
same,glycan array binding signal (z-score),[20],0.42
same,glycan array binding signal (z-score),[21],-2.02
same,glycan array binding signal (z-score),[22],-0.762
same,glycan array binding signal (z-score),[23],-0.144
same,glycan array binding signal (z-score),[24],-0.338
same,glycan array binding signal (z-score),[25],1.58
same,glycan array binding signal (z-score),[26],1.53
same,glycan array binding signal (z-score),[27],0.713
same,glycan array binding signal (z-score),[28],-0.108
same,glycan array binding signal (z-score),[29],-0.239
same,glycan array binding signal (z-score),[30],-0.198

# Looked up one by one from the entries so far:
binder,measurement,setting,value
TAL6-6LysM (Trichoderma atroviride) (protein) AASKLGVPQPAQRDQVNCQLYAVQPNDNCIDISSKNNITYAQLLSWNPSLSSTCSNLASLNSSSICVSNPKGTFSISSNTVGATDIATTTAPVPSPTLDQTTSRCAKYYQVSDGDDCSHLTAQFAITLKDFIFLNSEVWQNCTNLELGYYYCVEPVGYISTYPGYLPTATTKPFNQTSATSLPYDGDPWARFSSNSSVIPIANGTRVDCYSYVYVKNLTENLFADCWNMASMYEITREELVLWNPSLGNDGSSGSNLSGAEASQVASSIAIPTTAPSSITTNLYTYPCTVAANISYCVALVSSTGALPTNTAPPGPHASGEISNCTAWFAPEAYDTCKSILDIFEMSFANFYKMNPSVGPDCSGLAVGTNYCVSTYPNGEDPNDDWDGDDSIPSISPTGIITPTPTQSGMVSNCNKFYDVHSNDGCSAIASSQHVDLSSLYKWNPAIKTDCSGLQASVYVCIGILTTSMSTTSKLPTTTSKPSTTSKPPTGITTPTPTQSGMVKNCNKFYDVHSGDGCSAIASSQKVNLSSFYLWNPAVKTDCSGLQASVFVCIGTLTTSMSTTTSKLPTTTSKPSTTSKPPTGIITPTPTQNGMVKNCNKFYDVHSGDGCSAIASSQKVNLSSFYLWNPAVKTDCSGLQASVFVCVGTATTTTAAGITTPTPTQSGMVSGCNKFYDVHAGDGCSAIASSQKIALSSLYKWNPAVKTDCSGLQASVYICIGVGNAAAARVTGAAASFLEQKLISEEDLNSAVDHHHHHH,glycan array binding signal (z-score),[13],-0.391
same,glycan array binding signal (z-score),[3],-0.724
